Experimental data reported in patent US9428472B2, “Methods of treating bacterial infections with 1,2-benzisothiazolinone and isoindolinone derivatives” (GEORGETOWN UNIVERSITY, priority 2011, dated 2016).
Some results were stated once for a whole list of compounds, not compound by compound.

Tested on: tested strains (gram positive pathogens)
Assay: MBC compared with MIC-50 over the tested strains
Format: cell-based
Details: taken as bactericidal activity

## O=C(Cn1sc2ccccc2c1=O)Nc1ccccc1Oc1ccccc1 [Compound I-2]
  MBC values relative to MIC-50 values: less than or equal to 4 times the MIC-50 values
